Assay results taken from paper PMC7919836.
These are yes or no findings as the source states them, for the method shown. In cells and extracts the contact can be indirect. Some results given as binding are weak or reduced against the parent protein; the word gives no strength. Sequences can lack the tags named with a protein.

Legend:
Assay in all cases: pull-down; SFB-tagged DUB (or OTUD6A full length or truncated) and MYC-tagged Aurora-A (full length or truncated) co-transfected into HEK293T; lysis in NETN buffer; DUB pulled down with S-protein beads at 4 °C overnight; Aurora-A blotted with MYC antibody
[1] = target: T1, SFB-tagged OTUD6A, full-length wild type (aa 1-288) (human) (UniProt Q7L8S5)
T1 sequence: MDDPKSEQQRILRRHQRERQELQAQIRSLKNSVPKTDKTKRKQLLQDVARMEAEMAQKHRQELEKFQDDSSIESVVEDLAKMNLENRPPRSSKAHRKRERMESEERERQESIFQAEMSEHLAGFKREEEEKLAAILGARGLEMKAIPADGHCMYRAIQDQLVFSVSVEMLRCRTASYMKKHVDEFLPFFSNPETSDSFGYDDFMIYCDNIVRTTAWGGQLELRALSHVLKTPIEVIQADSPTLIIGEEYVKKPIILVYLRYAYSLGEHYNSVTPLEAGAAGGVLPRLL

[2] = target: T2, SFB-tagged OTUD7A (human) (UniProt Q8TE49)
T2 sequence: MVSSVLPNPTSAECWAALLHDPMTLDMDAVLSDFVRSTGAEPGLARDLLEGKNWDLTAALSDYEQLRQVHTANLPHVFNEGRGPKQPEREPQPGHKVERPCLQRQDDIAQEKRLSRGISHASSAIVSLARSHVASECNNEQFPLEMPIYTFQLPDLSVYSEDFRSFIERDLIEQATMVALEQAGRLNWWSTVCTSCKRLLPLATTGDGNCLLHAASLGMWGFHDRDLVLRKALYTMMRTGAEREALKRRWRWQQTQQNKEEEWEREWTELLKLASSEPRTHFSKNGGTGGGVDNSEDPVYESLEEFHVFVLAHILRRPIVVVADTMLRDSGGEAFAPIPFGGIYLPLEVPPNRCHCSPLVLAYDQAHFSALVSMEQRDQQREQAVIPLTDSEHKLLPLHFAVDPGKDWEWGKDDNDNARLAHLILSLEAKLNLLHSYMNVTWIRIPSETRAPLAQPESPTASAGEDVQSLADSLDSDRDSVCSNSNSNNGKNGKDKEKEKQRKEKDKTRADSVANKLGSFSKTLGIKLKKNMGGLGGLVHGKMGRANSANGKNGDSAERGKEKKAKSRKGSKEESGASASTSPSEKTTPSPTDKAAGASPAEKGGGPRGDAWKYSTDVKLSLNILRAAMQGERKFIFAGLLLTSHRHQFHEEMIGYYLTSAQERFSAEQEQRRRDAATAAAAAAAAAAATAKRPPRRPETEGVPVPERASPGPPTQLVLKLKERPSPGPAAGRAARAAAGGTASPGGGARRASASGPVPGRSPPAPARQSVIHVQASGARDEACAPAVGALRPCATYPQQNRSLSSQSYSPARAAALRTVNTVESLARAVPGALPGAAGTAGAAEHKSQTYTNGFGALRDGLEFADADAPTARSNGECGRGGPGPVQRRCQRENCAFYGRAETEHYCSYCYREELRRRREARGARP

SFB-tagged USP2 (human) = target: T3, SFB-tagged USP2 (human) (UniProt O75604)
T3 sequence: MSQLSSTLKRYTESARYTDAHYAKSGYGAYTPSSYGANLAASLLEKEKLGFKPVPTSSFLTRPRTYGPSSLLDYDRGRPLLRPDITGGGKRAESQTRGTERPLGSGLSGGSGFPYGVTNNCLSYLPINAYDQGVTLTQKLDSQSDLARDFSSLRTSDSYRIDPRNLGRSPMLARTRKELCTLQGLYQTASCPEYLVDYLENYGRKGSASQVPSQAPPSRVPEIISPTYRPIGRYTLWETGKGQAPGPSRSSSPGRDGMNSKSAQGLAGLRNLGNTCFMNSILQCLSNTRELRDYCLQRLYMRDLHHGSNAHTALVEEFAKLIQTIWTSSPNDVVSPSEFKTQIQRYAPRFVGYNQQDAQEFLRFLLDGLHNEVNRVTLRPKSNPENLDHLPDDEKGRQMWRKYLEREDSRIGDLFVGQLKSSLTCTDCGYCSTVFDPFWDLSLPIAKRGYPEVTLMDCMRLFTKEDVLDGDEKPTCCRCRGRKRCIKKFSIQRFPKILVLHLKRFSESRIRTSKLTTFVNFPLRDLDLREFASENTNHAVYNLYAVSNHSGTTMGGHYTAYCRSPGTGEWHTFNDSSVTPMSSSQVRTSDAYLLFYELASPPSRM

SFB-tagged USP44 (human) = target: T4, SFB-tagged USP44 (human) (UniProt Q9H0E7)
T4 sequence: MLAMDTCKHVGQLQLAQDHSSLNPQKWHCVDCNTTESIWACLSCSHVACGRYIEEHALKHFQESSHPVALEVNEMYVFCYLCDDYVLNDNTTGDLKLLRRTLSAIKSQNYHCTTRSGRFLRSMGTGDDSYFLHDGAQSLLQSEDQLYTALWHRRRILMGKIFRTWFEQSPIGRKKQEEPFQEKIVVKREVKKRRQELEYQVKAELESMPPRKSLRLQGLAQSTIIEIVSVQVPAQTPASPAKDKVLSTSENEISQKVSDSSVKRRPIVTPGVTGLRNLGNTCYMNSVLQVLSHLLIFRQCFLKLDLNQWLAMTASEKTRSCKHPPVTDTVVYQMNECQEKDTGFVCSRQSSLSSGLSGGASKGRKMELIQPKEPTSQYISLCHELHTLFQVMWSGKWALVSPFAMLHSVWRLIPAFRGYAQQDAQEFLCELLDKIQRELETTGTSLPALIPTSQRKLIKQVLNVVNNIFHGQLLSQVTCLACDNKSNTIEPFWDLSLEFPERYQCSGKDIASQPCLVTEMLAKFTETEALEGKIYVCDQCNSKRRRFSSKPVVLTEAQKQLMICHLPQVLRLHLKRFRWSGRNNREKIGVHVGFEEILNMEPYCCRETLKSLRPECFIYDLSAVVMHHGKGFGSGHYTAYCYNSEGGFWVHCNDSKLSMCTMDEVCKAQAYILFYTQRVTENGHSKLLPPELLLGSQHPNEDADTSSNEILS

binding [1]: binds | binding [2]: binds | binding (SFB-tagged USP2 (human)): no binding | binding (SFB-tagged USP44 (human)): binds
B1: MYC-tagged Aurora kinase A, full-length wild type (aa 1-403) (protein, UniProt O14965 1-403)
chain: MDRSKENCISGPVKATAPVGGPKRVLVTQQFPCQNPLPVNSGQAQRVLCPSNSSQRIPLQAQKLVSSHKPVQNQKQKQLQATSVPHPVSRPLNNTQKSKQPLPSAPENNPEEELASKQKNEESKKRQWALEDFEIGRPLGKGKFGNVYLAREKQSKFILALKVLFKAQLEKAGVEHQLRREVEIQSHLRHPNILRLYGYFHDATRVYLILEYAPLGTVYRELQKLSKFDEQRTATYITELANALSYCHSKRVIHRDIKPENLLLGSAGELKIADFGWSVHAPSSRRTTLCGTLDYLPPEMIEGRMHDEKVDLWSLGVLCYEFLVGKPPFEANTYQETYKRISRVEFTFPDFVTEGARDLISRLLKHNPSQRPMLREVLEHPWITANSSKPSNCQNKESASKQS
